In PMC11027339:
No constants are given. Whether binding was seen depends on the method and setting. Binding seen in cells or lysates may run through a third protein. Some results given as binding are weak or reduced against the parent protein; the word gives no strength.

Sequences of proteins named here, by UniProt entry; tags and fusion partners are left off.
UniProt Q6PER3: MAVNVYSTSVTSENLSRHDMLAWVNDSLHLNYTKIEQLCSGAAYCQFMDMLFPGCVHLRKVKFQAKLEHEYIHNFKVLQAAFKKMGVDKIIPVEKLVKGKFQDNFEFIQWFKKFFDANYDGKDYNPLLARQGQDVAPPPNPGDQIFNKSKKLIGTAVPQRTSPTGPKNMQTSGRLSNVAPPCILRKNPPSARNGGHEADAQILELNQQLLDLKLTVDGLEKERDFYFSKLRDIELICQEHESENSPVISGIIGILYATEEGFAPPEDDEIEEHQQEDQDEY

How the values were obtained:
[1] = target: T1, Microtubule end-binding protein 1 (EB1), murine (mouse (endogenous in cerebellum)) (UniProt Q61166); test: co-IP; EB1 or EB3 antibody cross-linked to AminoLink Plus resin; 1 mg wild-type mouse cerebellum lysate (N-PER) supplemented with 1 mg NAP/Davunetide, overnight at 4 °C; stringent washes with high detergent buffers; eluates immunoblotted for Adnp, Sirt1, EB1, EB3 and GAPDH
T1 sequence: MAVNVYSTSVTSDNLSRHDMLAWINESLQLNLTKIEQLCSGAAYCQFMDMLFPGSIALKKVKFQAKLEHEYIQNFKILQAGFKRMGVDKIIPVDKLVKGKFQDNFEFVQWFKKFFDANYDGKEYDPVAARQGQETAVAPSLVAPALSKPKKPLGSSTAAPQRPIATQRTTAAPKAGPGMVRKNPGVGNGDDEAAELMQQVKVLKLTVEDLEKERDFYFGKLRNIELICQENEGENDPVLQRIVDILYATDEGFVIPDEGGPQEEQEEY

[2] = target: Microtubule end-binding protein 3 (EB3), murine (mouse (endogenous in cerebellum)) (UniProt Q6PER3); test: as above

binding [1]: binds
binding [2]: binds
B1: Activity-dependent neuroprotective protein (Adnp), murine (protein, UniProt Q9Z103 1-1108)
chain: MFQLPVNNLGSLRKARKTVKKILSDIGLEYCKEHIEDFKQFEPNDFYLKNTTWEDVGLWDPSLTKNQDYRTKPFCCSACPFSSKFFSAYKSHFRNVHSEDFENRILLNCPYCTFNADKKTLETHIKIFHAPNSSAPSSSLSTFKDKNKNDGLKPKQADNVEQAVYYCKKCTYRDPLYEIVRKHIYREHFQHVAAPYIAKAGEKSLNGAVSLGTNAREECNIHCKRCLFMPKSYEALVQHVIEDHERIGYQVTAMIGHTNVVVPRAKPLMLIAPKPQDKKGMGLPPRISSLASGNVRSLPSQQMVNRLSIPKPNLNSTGVNMMSNVHLQQNNYGVKSVGQSYGVGQSVRLGLGGNAPVSIPQQSQSVKQLLPSGNGRSFGLGAEQRPPAAARYSLQTANTSLPPGQVKSPSVSQSQASRVLGQSSSKPPPAATGPPPSNHCATQKWKICTICNELFPENVYSVHFEKEHKAEKVPAVANYIMKIHNFTSKCLYCNRYLPTDTLLNHMLIHGLSCPYCRSTFNDVEKMAAHMRMVHIDEEMGPKTDSTLSFDLTLQQGSHTNIHLLVTTYNLRDAPAESVAYHAQNNAPVPPKPQPKVQEKADVPVKSSPQAAVPYKKDVGKTLCPLCFSILKGPISDALAHHLRERHQVIQTVHPVEKKLTYKCIHCLGVYTSNMTASTITLHLVHCRGVGKTQNGQDKTNAPSRLNQSPGLAPVKRTYEQMEFPLLKKRKLEEDADSPSCFEEKPEEPVVLALDPKGHEDDSYEARKSFLTKYFNKQPYPTRREIEKLAASLWLWKSDIASHFSNKRKKCVRDCEKYKPGVLLGFNMKELNKVKHEMDFDAEWLFENHDEKDSRVNASKTVDKKHNLGKEDDSFSDSFEHLEEESNGSGSPFDPVFEVEPKIPSDNLEEPVPKVIPEGALESEKLDQKEEEEEEEEEDGSKYETIHLTEEPAKLMHDASDSEVDQDDVVEWKDGASPSESGPGSQQISDFEDNTCEMKPGTWSDESSQSEDARSSKPAAKKKATVQDDTEQLKWKNSSYGKVEGFWSKDQSQWENASENAERLPNPQIEWQNSTIDSEDGEQFDSMTDGVADPMHGSLTGVKLSSQQA
